Results are given in words; binding and its absence hold for the method and conditions named. Binding seen in cells or lysates may run through a third protein. Some binding calls cover weakened binding; strength is not graded here. Sequences can lack the tags named with a protein.
Biological target: LRP1, endogenous in differentiated AD-NSC cultures (human (endogenous in iPSC-derived AD-NSC cultures)) (UniProt Q07954)
Assay: co-IP; differentiated AD-NSC cultures incubated with 1 μM Aβ42 and various concentrations of purified DKK1-Flag or DKK3-Flag for 30 min; total extract precipitated with anti-LRP1 antibody; immunoblot; only the binder purified

Sequences of proteins named here, by UniProt entry; tags and fusion partners are left off. Residues count along the entry.
UniProt Q07954, residues 20-4544: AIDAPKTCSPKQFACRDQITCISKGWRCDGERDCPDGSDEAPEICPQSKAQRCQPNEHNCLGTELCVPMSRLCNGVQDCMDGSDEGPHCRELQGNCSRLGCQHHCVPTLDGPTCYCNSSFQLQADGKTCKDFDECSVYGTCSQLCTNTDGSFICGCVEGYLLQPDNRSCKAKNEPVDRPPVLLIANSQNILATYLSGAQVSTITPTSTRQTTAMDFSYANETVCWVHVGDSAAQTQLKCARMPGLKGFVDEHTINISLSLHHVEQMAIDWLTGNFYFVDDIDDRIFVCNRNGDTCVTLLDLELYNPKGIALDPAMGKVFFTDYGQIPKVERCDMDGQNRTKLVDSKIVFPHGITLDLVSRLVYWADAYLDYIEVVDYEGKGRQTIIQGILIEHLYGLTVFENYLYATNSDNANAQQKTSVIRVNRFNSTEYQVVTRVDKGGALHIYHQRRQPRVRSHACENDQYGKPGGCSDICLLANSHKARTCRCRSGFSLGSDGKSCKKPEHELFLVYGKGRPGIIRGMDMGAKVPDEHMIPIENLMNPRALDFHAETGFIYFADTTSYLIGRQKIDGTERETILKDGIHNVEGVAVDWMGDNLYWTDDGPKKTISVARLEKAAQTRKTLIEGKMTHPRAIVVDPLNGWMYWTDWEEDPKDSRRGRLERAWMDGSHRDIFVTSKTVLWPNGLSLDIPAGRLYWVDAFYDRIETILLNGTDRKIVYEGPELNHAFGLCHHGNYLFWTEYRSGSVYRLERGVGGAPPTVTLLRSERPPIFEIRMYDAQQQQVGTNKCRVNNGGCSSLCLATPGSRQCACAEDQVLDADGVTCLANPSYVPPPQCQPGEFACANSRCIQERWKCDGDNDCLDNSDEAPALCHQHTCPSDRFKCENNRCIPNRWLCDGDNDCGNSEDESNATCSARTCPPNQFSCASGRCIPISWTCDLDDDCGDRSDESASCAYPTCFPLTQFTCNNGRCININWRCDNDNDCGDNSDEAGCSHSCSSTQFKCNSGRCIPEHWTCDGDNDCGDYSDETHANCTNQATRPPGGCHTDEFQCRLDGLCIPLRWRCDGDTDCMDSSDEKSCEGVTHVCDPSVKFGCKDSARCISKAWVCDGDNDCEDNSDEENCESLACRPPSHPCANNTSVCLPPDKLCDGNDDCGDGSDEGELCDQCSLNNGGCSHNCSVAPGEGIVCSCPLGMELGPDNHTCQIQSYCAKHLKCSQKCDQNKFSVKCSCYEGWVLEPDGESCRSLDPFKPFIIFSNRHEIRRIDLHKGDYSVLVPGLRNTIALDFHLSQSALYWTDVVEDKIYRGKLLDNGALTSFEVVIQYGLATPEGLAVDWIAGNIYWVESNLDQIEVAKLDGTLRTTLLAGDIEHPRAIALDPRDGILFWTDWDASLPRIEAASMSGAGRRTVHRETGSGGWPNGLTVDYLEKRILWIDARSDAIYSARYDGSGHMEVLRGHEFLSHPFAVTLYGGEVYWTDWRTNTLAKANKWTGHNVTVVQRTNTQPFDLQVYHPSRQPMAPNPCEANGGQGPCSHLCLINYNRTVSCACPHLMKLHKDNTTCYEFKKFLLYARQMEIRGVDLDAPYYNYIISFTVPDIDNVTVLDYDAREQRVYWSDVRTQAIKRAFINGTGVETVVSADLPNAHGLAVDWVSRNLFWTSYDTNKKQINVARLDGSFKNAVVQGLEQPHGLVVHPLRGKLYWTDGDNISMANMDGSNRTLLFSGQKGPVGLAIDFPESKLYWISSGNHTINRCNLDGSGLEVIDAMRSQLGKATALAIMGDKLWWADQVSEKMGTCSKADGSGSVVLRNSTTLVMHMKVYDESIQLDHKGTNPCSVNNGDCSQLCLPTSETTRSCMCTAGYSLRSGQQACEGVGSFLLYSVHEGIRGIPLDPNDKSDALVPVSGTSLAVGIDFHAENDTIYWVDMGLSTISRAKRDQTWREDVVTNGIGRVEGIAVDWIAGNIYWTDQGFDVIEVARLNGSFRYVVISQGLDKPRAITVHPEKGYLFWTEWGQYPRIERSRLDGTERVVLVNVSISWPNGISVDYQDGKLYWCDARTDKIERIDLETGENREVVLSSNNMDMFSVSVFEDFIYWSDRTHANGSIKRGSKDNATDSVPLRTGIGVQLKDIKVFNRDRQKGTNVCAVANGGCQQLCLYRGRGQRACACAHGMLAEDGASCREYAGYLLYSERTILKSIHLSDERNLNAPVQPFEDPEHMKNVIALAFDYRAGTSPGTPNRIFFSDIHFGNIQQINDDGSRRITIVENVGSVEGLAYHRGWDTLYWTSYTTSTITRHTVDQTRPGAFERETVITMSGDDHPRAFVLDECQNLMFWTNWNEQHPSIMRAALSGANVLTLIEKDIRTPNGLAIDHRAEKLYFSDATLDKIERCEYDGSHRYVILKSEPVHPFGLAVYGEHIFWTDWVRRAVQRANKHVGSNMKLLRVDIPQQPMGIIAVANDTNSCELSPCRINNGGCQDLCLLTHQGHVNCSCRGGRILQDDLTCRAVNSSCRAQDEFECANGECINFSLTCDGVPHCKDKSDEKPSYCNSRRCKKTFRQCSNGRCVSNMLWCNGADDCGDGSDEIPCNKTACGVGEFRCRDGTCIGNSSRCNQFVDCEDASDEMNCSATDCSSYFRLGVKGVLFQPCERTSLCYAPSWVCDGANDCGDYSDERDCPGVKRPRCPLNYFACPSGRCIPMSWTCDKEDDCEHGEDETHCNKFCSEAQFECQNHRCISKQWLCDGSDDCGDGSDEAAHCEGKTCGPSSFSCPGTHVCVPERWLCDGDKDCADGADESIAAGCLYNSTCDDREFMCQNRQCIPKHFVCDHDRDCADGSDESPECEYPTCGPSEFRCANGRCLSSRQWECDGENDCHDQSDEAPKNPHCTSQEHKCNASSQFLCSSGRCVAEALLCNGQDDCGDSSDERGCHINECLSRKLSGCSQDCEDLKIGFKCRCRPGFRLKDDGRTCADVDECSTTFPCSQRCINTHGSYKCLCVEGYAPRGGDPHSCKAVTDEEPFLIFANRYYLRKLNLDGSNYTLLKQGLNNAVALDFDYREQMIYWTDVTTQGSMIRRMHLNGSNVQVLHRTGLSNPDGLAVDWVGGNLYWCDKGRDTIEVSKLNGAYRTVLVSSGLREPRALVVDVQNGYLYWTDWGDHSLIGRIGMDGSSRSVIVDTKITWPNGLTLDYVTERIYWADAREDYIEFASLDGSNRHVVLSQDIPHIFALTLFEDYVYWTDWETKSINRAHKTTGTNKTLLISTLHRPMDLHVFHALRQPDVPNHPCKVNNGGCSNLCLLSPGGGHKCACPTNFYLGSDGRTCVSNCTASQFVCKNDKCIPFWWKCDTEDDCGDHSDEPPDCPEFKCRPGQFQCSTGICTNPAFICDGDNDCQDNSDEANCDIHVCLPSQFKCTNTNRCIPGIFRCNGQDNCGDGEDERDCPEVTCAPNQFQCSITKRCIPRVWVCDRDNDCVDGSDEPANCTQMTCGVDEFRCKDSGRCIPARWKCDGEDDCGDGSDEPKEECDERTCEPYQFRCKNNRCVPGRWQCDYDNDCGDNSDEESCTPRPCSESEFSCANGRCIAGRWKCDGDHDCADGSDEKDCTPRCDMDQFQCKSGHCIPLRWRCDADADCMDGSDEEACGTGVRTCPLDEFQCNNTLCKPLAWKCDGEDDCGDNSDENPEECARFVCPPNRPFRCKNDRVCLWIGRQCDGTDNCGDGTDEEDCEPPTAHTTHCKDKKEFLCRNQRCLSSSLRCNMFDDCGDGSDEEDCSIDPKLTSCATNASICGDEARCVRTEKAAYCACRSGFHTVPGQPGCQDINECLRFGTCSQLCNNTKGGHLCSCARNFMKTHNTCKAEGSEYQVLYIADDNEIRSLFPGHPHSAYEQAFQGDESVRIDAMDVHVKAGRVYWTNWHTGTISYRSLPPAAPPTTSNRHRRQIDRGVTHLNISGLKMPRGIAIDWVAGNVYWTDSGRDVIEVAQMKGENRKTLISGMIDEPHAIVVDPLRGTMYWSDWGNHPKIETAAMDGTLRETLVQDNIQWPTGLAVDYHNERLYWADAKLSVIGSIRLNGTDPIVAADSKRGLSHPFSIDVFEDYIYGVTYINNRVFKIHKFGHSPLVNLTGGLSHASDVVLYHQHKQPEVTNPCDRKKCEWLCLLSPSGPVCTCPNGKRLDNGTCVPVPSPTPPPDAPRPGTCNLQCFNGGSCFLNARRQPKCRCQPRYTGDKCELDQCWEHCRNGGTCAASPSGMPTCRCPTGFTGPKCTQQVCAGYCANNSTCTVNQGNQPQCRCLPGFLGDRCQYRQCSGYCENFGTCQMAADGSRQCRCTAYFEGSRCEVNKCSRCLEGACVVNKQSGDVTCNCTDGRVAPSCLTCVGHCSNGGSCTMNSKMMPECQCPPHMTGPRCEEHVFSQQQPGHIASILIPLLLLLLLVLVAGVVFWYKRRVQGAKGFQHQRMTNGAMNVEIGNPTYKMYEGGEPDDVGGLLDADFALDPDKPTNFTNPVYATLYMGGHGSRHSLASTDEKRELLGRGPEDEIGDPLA

- binding: binds
B1: DKK1-Flag (ligand, UniProt O94907 32-266)
chain: TLNSVLNSNAIKNLPPPLGGAAGHPGSAVSAAPGILYPGGNKYQTIDNYQPYPCAEDEECGTDEYCASPTRGGDAGVQICLACRKRRKRCMRHAMCCPGNYCKNGICVSSDQNHFRGEIEETITESFGNDHSTLDGYSRRTTLSSKMYHTKGQEGSVCLRSSDCASGLCCARHFWSKICKPVLKEGQVCTKHRRKGSHGLEIFQRCYCGEGLSCRIQKDHHQASNSSRLHTCQRH
